## Screening data, single-dose tests

By UniProt entry, the sequences of proteins in these tests, tags left out. Residues count along the entry.
UniProt A4I591, 1-473: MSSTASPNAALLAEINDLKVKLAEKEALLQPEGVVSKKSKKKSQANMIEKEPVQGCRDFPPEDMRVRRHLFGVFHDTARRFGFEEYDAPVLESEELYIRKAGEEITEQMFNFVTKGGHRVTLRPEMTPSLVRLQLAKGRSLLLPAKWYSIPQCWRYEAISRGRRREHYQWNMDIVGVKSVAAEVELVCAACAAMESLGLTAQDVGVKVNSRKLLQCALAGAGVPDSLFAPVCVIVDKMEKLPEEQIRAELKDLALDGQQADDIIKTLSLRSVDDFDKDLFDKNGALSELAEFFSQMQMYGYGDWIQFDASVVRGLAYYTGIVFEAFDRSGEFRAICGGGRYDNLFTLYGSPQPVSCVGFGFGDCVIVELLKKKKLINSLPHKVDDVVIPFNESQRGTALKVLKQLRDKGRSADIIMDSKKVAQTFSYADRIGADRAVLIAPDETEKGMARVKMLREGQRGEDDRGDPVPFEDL
UniProt Q8IDJ8, 1-583: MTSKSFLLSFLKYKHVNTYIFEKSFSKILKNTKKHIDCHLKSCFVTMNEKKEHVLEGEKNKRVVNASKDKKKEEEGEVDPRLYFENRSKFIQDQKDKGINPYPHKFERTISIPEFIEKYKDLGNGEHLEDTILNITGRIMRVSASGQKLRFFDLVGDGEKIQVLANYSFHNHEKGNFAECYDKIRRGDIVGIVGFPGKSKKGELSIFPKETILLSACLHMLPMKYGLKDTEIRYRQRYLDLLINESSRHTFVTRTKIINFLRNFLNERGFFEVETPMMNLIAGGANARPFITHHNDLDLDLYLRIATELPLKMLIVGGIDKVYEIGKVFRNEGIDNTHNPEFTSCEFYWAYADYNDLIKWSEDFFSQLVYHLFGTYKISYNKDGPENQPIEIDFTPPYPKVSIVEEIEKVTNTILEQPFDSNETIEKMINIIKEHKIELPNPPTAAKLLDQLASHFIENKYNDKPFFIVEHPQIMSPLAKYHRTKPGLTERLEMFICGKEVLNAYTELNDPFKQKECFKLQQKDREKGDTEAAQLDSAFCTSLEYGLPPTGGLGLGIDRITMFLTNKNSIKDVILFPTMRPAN
UniProt Q4DA54, 1-478: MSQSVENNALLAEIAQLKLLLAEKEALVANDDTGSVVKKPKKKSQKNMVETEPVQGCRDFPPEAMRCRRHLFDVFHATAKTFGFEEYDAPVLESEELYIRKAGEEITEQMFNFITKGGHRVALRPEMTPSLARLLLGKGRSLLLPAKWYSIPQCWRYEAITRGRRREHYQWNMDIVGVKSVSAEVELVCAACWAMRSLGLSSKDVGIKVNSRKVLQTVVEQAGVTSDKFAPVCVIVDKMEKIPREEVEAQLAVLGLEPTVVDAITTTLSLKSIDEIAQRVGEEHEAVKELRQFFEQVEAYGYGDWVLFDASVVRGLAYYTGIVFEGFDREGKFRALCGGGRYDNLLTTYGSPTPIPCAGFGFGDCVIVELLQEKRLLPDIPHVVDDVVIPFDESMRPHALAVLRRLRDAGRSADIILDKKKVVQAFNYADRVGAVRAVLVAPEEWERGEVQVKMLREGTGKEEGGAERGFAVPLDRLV

A: 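Enzyme assay of histidyl-tRNA synthetase; the read-out is not stated. Target: Histidine-tRNA ligase, Leishmania infantum (UniProt A4I591). Compounds at 30 µM. The record gives no direction; compounds that gave an IC50 in retests scored well above the rest, so higher reads as stronger inhibition. The assay is labelled LdHisRS but filed under L. infantum. Size under these conditions: about 69,000 compounds, about 410 of them at 50% or above in at least one test.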
B: 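Enzyme assay of the cytosolic lysyl-tRNA synthetase in 384-well plates, read by luminescence. Target: Lysine-tRNA ligase, Plasmodium falciparum 3D7 (UniProt Q8IDJ8). Concentration: 30 µM. Higher reads as stronger inhibition, judged from the few compounds that gave an IC50. Size under these conditions: about 69,000 compounds, about 49 of them at 50% or above in at least one test.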
C: 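Enzyme assay of histidyl-tRNA synthetase; the read-out is not stated. Target: Histidine-tRNA ligase, Trypanosoma cruzi CL Brener (UniProt Q4DA54). Tested at 30 µM. Higher reads as stronger inhibition (inferred: compounds with an IC50 in retests scored well above the rest). Size under these conditions: about 69,000 compounds, about 31 of them at 50% or above in at least one test.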

Values are the deposited “Percent Effect”, in %. The controls that fix the scale are not given in the record; negative values are as filed. Compounds were drawn at random from those tested, without regard to their results.

With CC(C)c1noc(CCC(=O)N2CCN(Cc3ccncc3)CC2)n1 the screen gave A: 20%; B: 0.06591%; C: 7.602%.
With CC(=O)c1ccc(CNC(=O)c2cc(C#N)cn2C)nc1C the screen gave A: 18.92%; B: 6.167%; C: 8.333%.
With COCCc1noc(CN2CCCCC2Cn2nc(C)cc2C)n1 (stereo not shown) the screen gave A: 3.125%; B: 2.484%; C: 5.703%.
With CC(=O)NC1(C(=O)N2CCCN(c3cccnn3)CC2)CCCCC1 the screen gave A: 24.66%; B: 6.559%; C: -4.211%.
With CC(NC(=O)NCCN1CCCC1)c1nncn1C (stereo not shown) the screen gave A: 18.18%; B: 2.188%; C: 4.094%.
With CC(=O)NCCNC(=O)Nc1ccc(C)cc1OCc1ccccc1 the screen gave A: 15.52%; B: -0.546%; C: 0.5236%.
With Cc1ccc(CN2CCCn3c(nc(Cn4ccnc4)cc3=O)C2)s1 the screen gave A: 11.5%; B: 5.404%; C: 5.6%.
With CC(C)(C)c1cnc(CNCC2CCCN2c2cccnn2)o1 (stereo not shown) the screen gave A: -1.613%; B: -3.819%; C: 5.102%.
With Cc1nnc(C2CCN(C(=O)c3ccc4nccnc4c3)CC2)s1 the screen gave A: 15.05%; B: 2.298%; C: 6.736%.
With c1ccc2oc(CCCN3CCCC3c3noc(C4CC4)n3)nc2c1 (stereo not shown) the screen gave A: 4.386%; B: -2.294%; C: 2.035%.
With Cc1nc2sccn2c1CNc1ccc(C(=O)O)cc1 the screen gave A: 13.7%; B: -0.5635%; C: -2.105%.
With Cc1nc(CN2CCN(C(=O)CCc3nc(C(C)(C)C)no3)CC2)cs1 the screen gave A: -3.571%; B: -3.112%; C: 6.14%.
With CCn1c(CN(C)Cc2cnc(C)s2)nc2c(F)cccc21 the screen gave A: 23.68%; B: 4.558%; C: 5.263%.
With COCc1ccccc1CNCc1c(C)nn(C)c1N(C)C the screen gave A: 28.57%; B: 0.09633%; C: 4.511%.
With COCCN1C[C@@H]2[C@@H](OC)CCN(Cc3ccc(C)o3)[C@@H]2C1 the screen gave A: 14.52%; B: -0.6965%; C: 7.018%.
With Cn1c(=O)c2cc(C(=O)NCCc3ccccc3)ccc2n(C)c1=O the screen gave A: 16.49%; B: 3.231%; C: 8.092%.
With CCNc1cc2c(nn1)CCN(C(=O)CCc1c(C)noc1C)C2 the screen gave A: 16.96%; B: -1.938%; C: 6.358%.
With Cn1cc(S(=O)(=O)N2CCCC2CC(=O)c2cccs2)cn1 (stereo not shown) the screen gave A: 11.54%; B: 0.5782%; C: -0.8333%.
With O[C@@H]1C[C@@H](c2nc(-c3ccccc3)no2)N(Cc2cccnc2)C1 the screen gave A: 19.44%; B: 3.224%; C: -1.493%.
With CCc1noc(CCC(=O)N2CCC(c3ccn[nH]3)C2)n1 (stereo not shown) the screen gave A: -1.439%; B: -0.6407%; C: -0.3831%.
With COCC1CCN(C(=O)c2cc(-c3ccco3)nc3c(Cl)cccc23)C1 (stereo not shown) the screen gave A: 11.67%; B: 6.102%; C: 2.597%.
With c1cnc(N2CCC3(CCN(CC4CCOC4)C3)CC2)nc1 (stereo not shown) the screen gave A: 19.61%; B: 4.488%; C: 3.825%.
With COc1cc(C(=O)O)cc(I)c1OCC(=O)NCCc1ccccc1 the screen gave A: 5.882%; B: 0.5325%; C: -25.13%.
With COc1cc(CN2CCCC[C@]3(C)NC(=O)CC[C@H]23)ccc1F the screen gave A: 18.79%; B: -0.3175%; C: 2%.
With CNC[C@H]1CC[C@H](c2cc(CN(C)S(=O)(=O)N(C)C)n(C)n2)CC1 the screen gave A: -50%; B: -0.3855%; C: 4.981%.
With CC(C)(C)C(=O)N1C[C@H](c2ccsc2)[C@H]2CN(Cc3cccs3)CC[C@H]21 the screen gave A: 28.57%; B: 11.41%; C: 4.301%.
With COCc1nn(C)c2c1CN(Cc1cnn(C)c1)CC2 the screen gave A: 3.883%; B: -0.1606%; C: 2.913%.
With CC1(CCNC(=O)NCc2ccsc2)OCCO1 the screen gave A: 1.408%; B: -3.323%; C: 4.459%.
With CC(C)(C)c1ncc2c(n1)CN(C(=O)C(C)(C)n1cccc1)C2 the screen gave A: 19.74%; B: 10.36%; C: -1.087%.
With CC(C)(C)CC(=O)Nc1ccc(S(C)(=O)=O)nc1 the screen gave A: 17.78%; B: -1.111%; C: 13.1%.
With CC(=O)NC1CCN(c2cc(C3CCNCC3)ccn2)CC1 the screen gave A: 5.674%; B: -1.445%; C: -2.326%.
With COc1nc2c(cc1C(=O)N1CCCCC1c1ccccn1)CCC2 (stereo not shown) the screen gave A: 18.18%; B: 1.799%; C: 3.636%.
With O=C(c1ccc(=O)[nH]c1)N1CCCC1c1nc2cc(F)ccc2[nH]1 (stereo not shown) the screen gave A: 8.642%; B: 2.634%; C: 2.232%.
With CNC(=O)c1cc2c(nc1NCC(C)C)CCN(c1ncccn1)CC2 the screen gave A: 6.579%; B: -0.9347%; C: 6.522%.
With Cc1ccsc1C(=O)N1CCc2ncc(CN3CCCC3)n2CC1 the screen gave A: 4%; B: -0.6564%; C: 2.062%.
With COCCCNC(=O)CN(C)C(=O)c1cc(C)sc1C the screen gave A: 15.38%; B: 0.5979%; C: -1.149%.
With CC(C)CNC(=O)N1CCC2(CC1)OC(C(N)=O)Cn1ccnc12 (stereo not shown) the screen gave A: 8.182%; B: 0.1446%; C: 2.116%.
With CCOC(=O)C1(O)CCN(C(=O)Nc2ccc(CC)cc2)CC1 the screen gave A: 17.33%; B: 3.845%; C: 0.5291%.

Some entries from above, unchanged:

| SMILES | A | B | C |
|---|---|---|---|
| `COc1cc(C(=O)O)cc(I)c1OCC(=O)NCCc1ccccc1` | 5.882 | 0.5325 | -25.13 |
| `CC1(CCNC(=O)NCc2ccsc2)OCCO1` | 1.408 | -3.323 | 4.459 |
| `COCc1nn(C)c2c1CN(Cc1cnn(C)c1)CC2` | 3.883 | -0.1606 | 2.913 |

Data taken from ChEMBL document CHEMBL3988442, “University of Dundee, Small-Polar-MMV Screening Library” (2021).